The source of these data is patent US20050059588A1, “Peptides which generate antibodies resulting in lysis of pathologically adherent erythrocytes” (REGENTS OF THE UNIVERSITY OF CALIFORNIA, priority 2003, published 2005).

Amino acid sequences for entries named in this document (tags omitted). Residues count along the entry.
UniProt P16671, residues 2-472: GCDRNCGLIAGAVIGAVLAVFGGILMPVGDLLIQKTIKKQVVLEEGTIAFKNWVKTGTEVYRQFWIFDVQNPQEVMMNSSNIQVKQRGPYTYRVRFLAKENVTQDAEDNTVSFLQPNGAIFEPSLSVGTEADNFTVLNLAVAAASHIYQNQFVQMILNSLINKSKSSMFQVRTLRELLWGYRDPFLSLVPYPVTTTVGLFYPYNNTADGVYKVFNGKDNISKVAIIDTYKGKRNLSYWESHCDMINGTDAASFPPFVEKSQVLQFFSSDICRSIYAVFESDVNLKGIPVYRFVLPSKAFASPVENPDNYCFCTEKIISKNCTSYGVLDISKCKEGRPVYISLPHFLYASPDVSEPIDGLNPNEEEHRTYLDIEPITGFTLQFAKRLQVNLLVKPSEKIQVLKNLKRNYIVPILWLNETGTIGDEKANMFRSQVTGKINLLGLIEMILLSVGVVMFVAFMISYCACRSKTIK

The assay concerns the target CD36 on CD36 transfected CHO cells (UniProt P16671). Nature of the assay: 40 ug/ml biotin labeled peptide on CD36 transfected CHO cells, Alexa-conjugated streptavidin.

Results are given in words; binding and its absence hold for the method and conditions named. Some results given as binding are weak or reduced against the parent protein; the word gives no strength.

B1: biotin labeled DBR peptide (peptide)
peptide: YETFSKLIKIFQDH
modifications: biotin label (position not given)
Regarding B1, the binding entry is listed as “binds”.
